From the supplement of paper PMC10849652
This is one part of the list.

By UniProt entry, the sequences of proteins in these tests, tags left out. Where a name states a change or a piece, a line headed by the entry shows the natural chain unless it says otherwise.
UniProt Q9NRG7: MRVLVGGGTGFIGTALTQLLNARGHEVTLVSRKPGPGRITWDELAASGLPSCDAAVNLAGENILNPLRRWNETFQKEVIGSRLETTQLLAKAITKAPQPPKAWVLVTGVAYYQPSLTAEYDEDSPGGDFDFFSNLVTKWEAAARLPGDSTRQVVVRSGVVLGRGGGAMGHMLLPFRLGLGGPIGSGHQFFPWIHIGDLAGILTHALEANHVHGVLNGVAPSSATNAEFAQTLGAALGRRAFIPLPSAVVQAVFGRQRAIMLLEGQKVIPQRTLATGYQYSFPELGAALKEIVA
UniProt P61619, whole entry, looked up: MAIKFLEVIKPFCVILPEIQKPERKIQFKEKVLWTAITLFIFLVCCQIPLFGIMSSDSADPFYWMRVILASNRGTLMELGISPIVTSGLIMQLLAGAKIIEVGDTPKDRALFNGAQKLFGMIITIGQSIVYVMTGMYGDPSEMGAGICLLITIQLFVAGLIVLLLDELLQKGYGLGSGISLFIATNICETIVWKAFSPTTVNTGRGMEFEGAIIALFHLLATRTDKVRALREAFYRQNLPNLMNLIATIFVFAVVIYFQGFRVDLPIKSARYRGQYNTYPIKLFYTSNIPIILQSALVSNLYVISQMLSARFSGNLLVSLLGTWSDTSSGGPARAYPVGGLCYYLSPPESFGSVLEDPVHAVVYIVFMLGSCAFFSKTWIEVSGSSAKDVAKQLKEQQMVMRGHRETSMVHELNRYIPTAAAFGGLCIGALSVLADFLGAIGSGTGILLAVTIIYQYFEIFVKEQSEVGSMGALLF
UniProt O95969: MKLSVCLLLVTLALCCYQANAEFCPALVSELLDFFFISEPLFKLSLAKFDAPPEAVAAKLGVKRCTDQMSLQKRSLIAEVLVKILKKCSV
UniProt P62341, whole entry, looked up: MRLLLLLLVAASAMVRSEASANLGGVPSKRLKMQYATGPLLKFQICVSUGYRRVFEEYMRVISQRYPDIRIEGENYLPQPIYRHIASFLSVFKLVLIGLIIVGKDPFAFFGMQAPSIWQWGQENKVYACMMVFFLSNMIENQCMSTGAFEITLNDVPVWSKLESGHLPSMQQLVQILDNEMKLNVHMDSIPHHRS
UniProt Q0VDG4: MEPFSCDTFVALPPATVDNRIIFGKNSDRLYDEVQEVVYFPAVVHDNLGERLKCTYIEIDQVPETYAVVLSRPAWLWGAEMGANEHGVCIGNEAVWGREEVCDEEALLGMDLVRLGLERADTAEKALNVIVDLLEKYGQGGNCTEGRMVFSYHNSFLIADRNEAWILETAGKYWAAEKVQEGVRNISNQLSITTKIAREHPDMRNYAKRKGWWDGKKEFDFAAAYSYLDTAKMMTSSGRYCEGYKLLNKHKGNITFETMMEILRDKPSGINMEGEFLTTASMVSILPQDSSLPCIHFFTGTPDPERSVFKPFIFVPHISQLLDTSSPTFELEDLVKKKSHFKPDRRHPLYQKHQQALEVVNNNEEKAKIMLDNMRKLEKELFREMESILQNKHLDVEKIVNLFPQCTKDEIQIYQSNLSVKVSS
UniProt Q9UPU9: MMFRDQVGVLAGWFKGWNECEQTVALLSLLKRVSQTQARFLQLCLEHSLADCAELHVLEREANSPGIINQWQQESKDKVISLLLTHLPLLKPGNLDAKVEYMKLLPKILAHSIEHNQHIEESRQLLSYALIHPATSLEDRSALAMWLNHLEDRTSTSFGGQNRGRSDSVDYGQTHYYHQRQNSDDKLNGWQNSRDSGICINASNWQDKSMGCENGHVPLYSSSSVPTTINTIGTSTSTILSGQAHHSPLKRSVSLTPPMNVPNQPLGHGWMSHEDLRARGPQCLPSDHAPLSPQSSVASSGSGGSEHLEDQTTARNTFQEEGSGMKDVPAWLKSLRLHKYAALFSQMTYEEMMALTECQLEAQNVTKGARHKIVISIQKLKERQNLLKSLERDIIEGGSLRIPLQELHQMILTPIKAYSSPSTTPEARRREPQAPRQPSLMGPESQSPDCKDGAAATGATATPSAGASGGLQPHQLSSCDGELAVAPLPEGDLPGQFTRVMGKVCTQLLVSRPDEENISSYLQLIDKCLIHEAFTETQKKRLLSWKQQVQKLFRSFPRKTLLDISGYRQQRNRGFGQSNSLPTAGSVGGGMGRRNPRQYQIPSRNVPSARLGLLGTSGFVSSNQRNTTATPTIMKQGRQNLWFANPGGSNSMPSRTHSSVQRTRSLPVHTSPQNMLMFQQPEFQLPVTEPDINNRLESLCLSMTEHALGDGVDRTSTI

Legend:
Test in all cases: log2 fold change, soluble protein after heating vs DMSO (PISA); higher = thermal stabilisation; K562 lysate, 10 uM; active = over 0.2 and 3.5 SD of the protein, either way, in both replicates (recomputed)
erlotinib = compound: C#Cc1cccc(Nc2ncnc3cc(OCCOC)c(OCCOC)cc23)c1 [erlotinib]
Method in brief: (§1)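 Pellets of K562 cells were dounce-homogenised in PBS pH 7.4 with 1 mM MgCl2, and the crude extract was held at 1 mg/mL protein for a 30 min treatment with 10 μM compound. Aliquots were heated for 3 min over 48°C-58°C and pooled before NP-40 was added to 0.5% at 4°C. The supernatant from 21,000xg for 90 min was quantified by TMTpro 16plex LC-MS/MS with channel sums equalised. Values are reported from duplicates as log-two fold change in thermal stability relative to solvent controls.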

[1] = compound: C1=CC(=CC=C1C2=NC3=C(N2)C=C(C=C3)C(=O)N)OC4=CC=C(C=C4)Cl
Method in brief: as §1

[2] = compound: C1=CC2=NC=CN=C2C=C1/C=C/3\C(=O)NC(=O)S3
Method in brief: as §1

[3] = compound: C1=CC=C(C=C1)C2=NC(=C(N2)C3=CC=NC=C3)C4=CC(=C(C=C4)Cl)O
Method in brief: as §1

IRAK-1-4 Inhibitor I = compound: C1COCCN1CCN2C3=CC=CC=C3N=C2NC(=O)C4=CC(=CC=C4)[N+](=O)[O-] [IRAK-1-4 Inhibitor I]
Method in brief: as §1

ibrutinib = compound: C=CC(=O)N1CCC[C@@H](n2nc(-c3ccc(Oc4ccccc4)cc3)c3c(N)ncnc32)C1 [ibrutinib]
Method in brief: as §1

[4] = compound: CC(=O)c1cnc2ccc(-c3cc(Cl)c(O)c(Cl)c3)nc2c1N[C@H]1CC[C@H](CN(C)C)CC1
Method in brief: as §1

ralimetinib = compound: CC(C)(C)Cn1c(N)nc2ccc(-c3[nH]c(C(C)(C)C)nc3-c3ccc(F)cc3)nc21 [ralimetinib]
Method in brief: as §1

[5] = compound: CC(C)(O)CC(=O)NCCn1ccc2ncnc(Nc3ccc(Oc4cccc(C(F)(F)F)c4)c(Cl)c3)c21
Method in brief: as §1

[6] = compound: CC(C)C1=C2N=C(C=C(N2N=C1)NCC3=CC=CC=C3)NCCCCCCN
Method in brief: as §1

[7] = compound: CC1=C(C(CC(=O)N1)C2=CC=C(C=C2)C(F)(F)F)C(=O)NC3=C(C=C4C(=C3)C=NN4)F
Method in brief: as §1

[8] = compound: CC1=C(C=C(C=C1)NC(=O)C2=CC(=CC=C2)N(C)C)NC(=O)C3=CC=C(C=C3)O
Method in brief: as §1

[9] = compound: CC1=CC=C(C=C1)SC2=C3C=C(SC3=CN=C2)C(=O)N
Method in brief: as §1

[10] = compound: C/C(=N\NC(=O)C1=CC(=CC=C1)S(=O)(=O)N2CCOCC2)/C3=C(C=CC(=C3)Cl)O
Method in brief: as §1

[11] = compound: C1=CC2=C(C=CC(=C2)/C=C\3/C(=O)NC(=NCC4=CC=CS4)S3)N=C1
Method in brief: as §1

[12] = compound: C1=CC=C2C(=C1)C3=NNC4=CC=CC(=C43)C2=O
Method in brief: as §1

[13] = compound: C1CCN(C1)C(=O)NC2=CC=CC(=C2)NC3=NC=C(C(=N3)NCCC4=CN=CN4)Br
Method in brief: as §1

[14] = compound: C1CN(CCC1(CC2=CC=C(C=C2)Cl)N)C3=NC=NC4=C3C=CN4
Method in brief: as §1

[15] = compound: CC1=C(C2=C(C=C1)C(=O)C3=CC=CC=C3N2CCCN)C
Method in brief: as §1

[16] = compound: CC1=C(C=C(C=C1)NC(=O)C2=CC(=CC=C2)C(C)(C)C#N)NC3=CC4=C(C=C3)N=CN(C4=O)C
Method in brief: as §1

Measured: log2 fold change

SDR39U1 (UniProt Q9NRG7)
inactive: erlotinib -0.058 | [1] 0.086 | [2] 0.008 | [3] 0.28 | IRAK-1-4 Inhibitor I -0.113 | ibrutinib 0.143 | [4] 0.233 | ralimetinib 0.018 | [5] -0.063 | [6] 0.086 | [7] 0.101 | [8] 0.048 | [9] 0.401

SEC61A1 (UniProt P61619)
inactive: erlotinib -0.009 | [10] -0.043 | [1] 0.075 | [11] 0.005 | [2] -0.003 | [3] -0.02 | [12] -0.037 | [13] -0.069 | [14] 0.017 | IRAK-1-4 Inhibitor I 0.011 | ibrutinib -0.03 | [4] -0.044 | ralimetinib 0.003 | [5] -0.041 | [6] 0.001 | [7] 0.025 | [15] -0.041 | [16] 0 | [8] 0.024 | [9] -0.027

SCGB1D2 (UniProt O95969)
inactive: erlotinib 0.173 | [1] -0.436 | [2] 0.226 | [3] 0.159 | [13] -0.007 | [14] -0.388 | IRAK-1-4 Inhibitor I -0.562 | ibrutinib -0.109 | [4] -0.181 | ralimetinib -0.053 | [5] 0.462 | [6] -0.104 | [7] 1.4 | [15] 0.741 | [16] -0.109 | [8] -0.159 | [9] -0.101

SELENOT (UniProt P62341)
inactive: erlotinib -0.039 | [1] 0.025 | [2] -0.235 | [3] -0.081 | [13] -0.163 | [14] 0.094 | IRAK-1-4 Inhibitor I 0.028 | ibrutinib -0.017 | [4] 0.019 | ralimetinib 0.044 | [5] -0.098 | [6] -0.038 | [7] -0.013 | [15] -0.177 | [16] 0.05 | [8] 0.056 | [9] -0.09

SCRN3 (UniProt Q0VDG4)
inactive: erlotinib -0.017 | [10] -0.001 | [1] 0.019 | [11] 0.003 | [2] 0 | [3] 0.02 | [12] 0.013 | [13] 0.004 | [14] 0.027 | IRAK-1-4 Inhibitor I -0.003 | ibrutinib -0.011 | [4] -0.001 | ralimetinib -0.019 | [5] 0 | [6] -0.025 | [7] 0.016 | [15] -0.006 | [16] 0.006 | [8] -0.004 | [9] -0.003

SAMD4A (UniProt Q9UPU9)
inactive: erlotinib -0.172 | [10] -0.014 | [1] 0.11 | [11] 0.097 | [2] -0.153 | [3] 0.11 | [12] -0.041 | [13] -0.046 | [14] 0.013 | IRAK-1-4 Inhibitor I 0.063 | ibrutinib -0.014 | [4] 0.052 | ralimetinib 0.395 | [5] 0.097 | [6] 0.094 | [15] -0.008 | [16] 0.025 | [8] 0.196 | [9] 0.088

SDHB, A0A087WWT1
inactive: erlotinib 0.012 | [10] -0.146 | [1] -0.169 | [11] -0.006 | [3] 0.181 | [12] -0.091 | [13] 0.066 | [14] 0.014 | IRAK-1-4 Inhibitor I -0.043 | [4] -0.011 | ralimetinib -0.011 | [5] 0.113 | [6] 0.109 | [7] -0.038 | [15] 0.067 | [16] 0.08 | [8] 0.054 | [9] 0.042

SEPTIN8 (UniProt F8W8I8)
inactive: erlotinib -0.091 | [1] -0.253 | [3] 0.111 | IRAK-1-4 Inhibitor I 0.115 | [4] -0.086 | ralimetinib 0.004 | [5] -0.068 | [6] 0.008 | [7] -0.084 | [15] -0.012 | [8] -0.152 | [9] -0.173

SAE1 (UniProt M0R286)
inactive: erlotinib -0.006 | [10] -0.061 | [1] 0.078 | [11] -0.151 | [12] 0.015 | [13] -0.088 | [14] -0.001 | [4] -0.101 | [6] 0.008 | [15] 0.063 | [9] -0.012
